System: prostaglandin, thromboxane and SPM production in human whole blood
Test: LM metabololipidomics of human whole blood during coagulation in the presence of indomethacin
Type: cell-based
Settings: mean of six donors; for LM concentration Avg, Indomethacin t = 0 h: 0 h after coagulation in the presence of indomethacin; for LM concentration Avg, Indomethacin t = 0.25 h: 0.25 h after coagulation in the presence of indomethacin; for LM concentration Avg, Indomethacin t = 0.5 h: 0.5 h after coagulation in the presence of indomethacin; for LM concentration Avg, Indomethacin t = 1 h: 1 h after coagulation in the presence of indomethacin; for LM concentration Avg, Indomethacin t = 3 h: 3 h after coagulation in the presence of indomethacin; for LM concentration Avg, Indomethacin t = 6 h: 6 h after coagulation in the presence of indomethacin; for LM concentration Avg, Indomethacin t = 24 h: 24 h after coagulation in the presence of indomethacin
Procedure: FIG. 8 illustrates SPM formation in human blood clots being regulated by lipoxygenase activity. (A and B) Freshly drawn human peripheral blood (4 ml) was placed in silicone-coated tubes at 37° C. for 24 hours and coagulation was stopped by snap-freezing before LC-MS/MS analysis was performed. Concentrations of total SPMs, prostaglandins, and thromboxanes after 24 hours of coagulation (Coag.) in the presence or absence of (A) 100 μM indomethacin (Indo.) (n=six individual donors), (B) 500 nM celecoxib (CLX) or 20 μM BAI (n=three individual donors). Data are means±SEM; *P<0.05 for +BAI vs. Coag; ****P<0.0001 for +Indo vs. Coag. using ratio t-test.
Human whole blood was transferred in 4-ml aliquots to negatively charged, silicone-coated 10-ml tubes (BD) without anticoagulant. For experiments with heparin, the heparinized blood was placed in 15-ml polypropylene tubes before incubation at 37° C. For LM profiling at designated times, all samples were immediately subjected to a workup procedure by which whole blood was snap-frozen in a dry ice/isopropanol bath and were returned to room temperature (×3 cycles) before undergoing centrifugation at 100,000 g at 4° C. Supernatants (and clots for select experiments; see FIG. 6) were collected and were subjected to LC-MS/MS LM metabololipidomics.
To obtain a complete blood profile of eicosanoids and SPMs each sample was subjected to a procedure involving snap-freezing of whole blood that was then thawed to room temperature three times and centrifuged at 100,000 g at 4 °C for 30 min before undergoing solid-phase extraction (SPE). Internal standards including d8-5-HETE, d5-RvD2, d5-LXA4, d4-LTB4, and d4-PGE2 (500 pg each; Cayman Chemical) were added together with four volumes of methanol to facilitate protein precipitation. […] Before elution, LM bound to the SPE matrix were neutralized with ddH2O. Methyl formate fractions from the SPE were brought to dryness under a gentle stream of nitrogen and resuspended in 1:1 methanol:water before injection into a liquid chromatography-tandem mass spectrometry system consisting of a QTrap 5500 (AB Sciex) equipped with a Shimadzu LC-20AD HPLC (Tokyo, Japan). A Poroshell 120 EC-18 column (100 mm×4.6 mm×2.7 μm; Agilent Technologies) was kept in a column oven maintained at 50° C., and lipid mediators (LMs) were eluted in a gradient of methanol/water/acetic acid from 55:45:0.01 (v/v/v) to 100:0:0.01 at a flow rate of 0.5 ml/min. To monitor and quantify the amounts of lipid mediators of interest, multiple reaction monitoring (MRM) was used with MS/MS matching signature ion fragments for each molecule (at least six diagnostic ions; ˜0.1 pg limits of detection as described previously (15)]. PCA was performed as described previously (15) with SIMCA software, version 13.0.3. Calibration curves were obtained daily from authentic (nonsynthetic) standards and matrix suppression for each targeted LM in snap-frozen blood, and supernatants determined and used for recovery and quantitation.

Compound	LM concentration Avg, Indomethacin t = 0 h [pg/mL]	LM concentration Avg, Indomethacin t = 0.25 h	LM concentration Avg, Indomethacin t = 0.5 h	LM concentration Avg, Indomethacin t = 1 h [pg/mL]	LM concentration Avg, Indomethacin t = 3 h [pg/mL]	LM concentration Avg, Indomethacin t = 6 h [pg/mL]	LM concentration Avg, Indomethacin t = 24 h [pg/mL]
CC/C=C\C/C=C\C/C=C\C/C=C\C/C=C\C=C\C(O)CCC(=O)O (stereo not drawn) [4-HDHA]	8.5	10.7 pg/mL	11.3 pg/mL	11.8	17.1	26.6	42.3
CC/C=C\C/C=C\C[C@H](O)/C=C/C=C\C/C=C\C=C\[C@@H](O)CCC(=O)O [4S,14S-diHDHA]	2.8	3.2 pg/mL	3.0 pg/mL	2.5	9.0	12.2	15.7
CC/C=C\C/C=C\C/C=C\C/C=C\C=C\C(O)CCCC(=O)O (stereo not drawn) [5-HEPE]	2.5	3.7 pg/mL	6.6 pg/mL	7.7	13.1	15.0	23.3
CCCCC/C=C\C/C=C\C/C=C\C=C\[C@@H](O)CCCC(=O)O [5-HETE]	15.5	19.7 pg/mL	51.0 pg/mL	61.4	122.6	145.2	148.7
CCCCC/C=C\C[C@H](O)/C=C/C=C\C=C\[C@@H](O)CCCC(=O)O [5S,12S-diHETE]	1.2	1.3 pg/mL	3.7 pg/mL	3.4	12.1	14.4	19.0
CCCCC[C@H](O)/C=C/C=C\C/C=C\C=C\[C@@H](O)CCCC(=O)O [5S,15S-diHETE, 5S,15S-dihydroxy-eicosa-6E, 8Z, 11Z, 13E-tetraenoic acid]	0.5	0.7 pg/mL	1.2 pg/mL	1.3	4.2	8.0	14.4
CC/C=C\C/C=C\C/C=C\C/C=C\C=C\C(O)C/C=C\CCC(=O)O (stereo not drawn) [7-HDHA]	1.4	1.6 pg/mL	1.9 pg/mL	2.1	3.6	4.3	6.2
CC/C=C\C/C=C\C[C@H](O)/C=C/C=C\C=C\[C@@H](O)C/C=C\CCC(=O)O [7S,14S-diHDHA]	0.7	— ((—) denotes concentrations <0.1 pg/ml)	— ((—) denotes concentrations <0.1 pg/ml)	0.2	0.4	3.4	1.0
CC/C=C\C[C@H](O)/C=C/C=C\C=C\[C@@H](O)C/C=C\C/C=C\CCC(=O)O [10S,17S-diHDHA]	0.3	0.4 pg/mL	0.4 pg/mL	0.4	1.5	3.6	5.5
CC/C=C\C/C=C\CC(O)/C=C/C=C\C/C=C\CCCC(=O)O (stereo not drawn) [12-HEPE]	1380.0	1964.3 pg/mL	2794.9 pg/mL	3115.6	11334.7	12955.2	16008.6
CCCCC/C=C\C[C@H](O)/C=C/C=C\C/C=C\CCCC(=O)O [12-HETE]	1270.4	2311.5 pg/mL	3820.5 pg/mL	5159.5	6782.9	7205.4	8564.0
CC/C=C\C/C=C\CC(O)/C=C/C=C\C/C=C\C/C=C\CCC(=O)O (stereo not drawn) [14-HDHA]	485.7	491.0 pg/mL	436.3 pg/mL	430.6	987.4	1218.7	1492.9
CC/C=C\CC(O)/C=C/C=C\C/C=C\C/C=C\CCCC(=O)O (stereo not drawn) [15-HEPE]	25.2	37.2 pg/mL	44.9 pg/mL	55.9	238.4	339.7	504.7
CCCCC[C@H](O)/C=C/C=C\C/C=C\C/C=C\CCCC(=O)O [15-HETE]	68.0	97.7 pg/mL	191.0 pg/mL	303.6	694.4	1016.8	1498.0
CC/C=C\CC(O)/C=C/C=C\C/C=C\C/C=C\C/C=C\CCC(=O)O (stereo not drawn) [17-HDHA]	16.2	18.9 pg/mL	19.7 pg/mL	25.5	62.7	95.8	179.7
CCC(O)/C=C/C=C\C/C=C\C/C=C\C/C=C\CCCC(=O)O (stereo not drawn) [18-HEPE]	39.8	64.4 pg/mL	85.1 pg/mL	103.7	301.2	393.8	721.1
O=C(O)CCC[C@H](O)\C=C/C=C/C=C/[C@H](O)C/C=C\CCCCCO [20-OH-LTB4]	0.2	0.7 pg/mL	2.6 pg/mL	8.2	14.0	20.2	21.3
CCCCC/C=C\C/C=C\C/C=C\C/C=C\CCCC(=O)O [AA, arachidonic acid]	6677.3	13096.4 pg/mL	17559.7 pg/mL	20436.6	25625.0	26651.4	31800.5

Reference: patent US11592453B2, “Personalized metabolomic profiling of specialized pro-resolving mediators” (THE BRIGHAM AND WOMEN'S HOSPITAL, INC., priority 2016, dated 2023)
